{"source": "PubChem BioAssay AID1159578 – Peter MacCallum Cancer Centre | 2015", "aim": "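siRNA pools altering how lymphatic endothelial cells close a scratch wound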 (primary screen)", "cells": "human lymphatic endothelial cells", "reagents": "siRNA pool against human genes, 40 nM", "timing": "48 h after transfection", "measured": "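High-content imaging of dye-stained cells in a scratch assay measures filled wound area and nuclei per well; duplicate means given as ratio to mock and robust z-score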", "scale": "migration robust z-score: higher = faster migration into the scratch; nuclei per well: higher = more cells in the well", "active means": "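Pools averaging fewer than 3300 nuclei are never called; remaining pools count as changed when migration robust z lies outside -2 to 2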", "meaning of the calls": "active = migration changed; inactive = no migration change, or too few cells", "note": "The whole screen tested about 18,000 reagents; below is an unselected part. Over the whole deposit, about 1,030 (5.7%) were called active. 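Inactive calls also include pools with fewer than 3300 nuclei, whose migration was not assessed.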 Raw values are not corrected between plates. Further read-outs or replicates are left out here. Reagent sequences are not shown."}
{"gene symbol": "NDUFS1 (GeneID 4719)", "PubChem SID": "SID255351181", "migration robust z-score": -0.65, "nuclei per well, duplicate mean": 5740, "Outcome": "inactive"}
{"gene symbol": "AKR1B10 (GeneID 57016)", "PubChem SID": "SID255359230", "migration robust z-score": -1.2, "nuclei per well, duplicate mean": 5854, "Outcome": "inactive"}
{"gene symbol": "GNPDA1 (GeneID 10007)", "PubChem SID": "SID255354736", "migration robust z-score": 0.84, "nuclei per well, duplicate mean": 6992, "Outcome": "inactive"}
{"gene symbol": "CHAMP1 (GeneID 283489)", "PubChem SID": "SID255364682", "migration robust z-score": 0.93, "nuclei per well, duplicate mean": 4038, "Outcome": "inactive"}
{"gene symbol": "TUBGCP4 (GeneID 27229)", "PubChem SID": "SID255356976", "migration robust z-score": 0.71, "nuclei per well, duplicate mean": 5237, "Outcome": "inactive"}
{"gene symbol": "TOPORS (GeneID 10210)", "PubChem SID": "SID255354898", "migration robust z-score": 1.22, "nuclei per well, duplicate mean": 5391, "Outcome": "inactive"}
{"gene symbol": "NPFF (GeneID 8620)", "PubChem SID": "SID255353683", "migration robust z-score": -0.02, "nuclei per well, duplicate mean": 4828, "Outcome": "inactive"}
{"gene symbol": "METTL17 (GeneID 64745)", "PubChem SID": "SID255359968", "migration robust z-score": -1.03, "nuclei per well, duplicate mean": 6631, "Outcome": "inactive"}

2 of these entries, set out differently.
| gene symbol | PubChem SID | migration robust z-score | nuclei per well, duplicate mean | Outcome |
| --- | --- | --- | --- | --- |
| NDUFS1 (GeneID 4719) | SID255351181 | -0.65 | 5740 | inactive |
| AKR1B10 (GeneID 57016) | SID255359230 | -1.2 | 5854 | inactive |

Further results follow.
{"gene symbol": "NUP50 (GeneID 10762)", "PubChem SID": "SID255355332", "migration robust z-score": 0.09, "nuclei per well, duplicate mean": 5543, "Outcome": "inactive"}
{"gene symbol": "RBM15B (GeneID 29890)", "PubChem SID": "SID255357197", "migration robust z-score": 0.55, "nuclei per well, duplicate mean": 5036, "Outcome": "inactive"}
{"gene symbol": "CACNB1 (GeneID 782)", "PubChem SID": "SID255348656", "migration robust z-score": -0.65, "nuclei per well, duplicate mean": 5206, "Outcome": "inactive"}
{"gene symbol": "S100A2 (GeneID 6273)", "PubChem SID": "SID255352261", "migration robust z-score": -0.08, "nuclei per well, duplicate mean": 5328, "Outcome": "inactive"}
